Measured values: the supplement of paper PMC7877785
± gives the uncertainty stated by the source. Many entries were measured with a wide error.

Assay: self-splicing fitness, log relative to wild type (ln ratio); higher = more splicing; Tetrahymena group I intron in knt gene, E. coli kanamycin selection, DiMSum; sequences stand for … in CUCUCU…GGAGGGAAAAGUUAUCAGGCAUGCACCUGGUAGCUAGUCUUUAAACCAAUAGAUUGCAUCGGUUUAAAAGGCAAGACCGUCAAAUUGCGGGAAAGGGGUCAACAGCCGUUCAGUACCAAGUCUCAGGGGAAACUUUGAGAUGGCCUUGCAAAGGGUAUGGUAAUAAGCUGACGGACAUGGUCCUAACCACGCAGCCAAGUCCUAAGUCAACAGAUCUUCUGUUGAUAUGGAUGCAGUUCACAGACUAAAUGUCGGUCGGGGAAGAUGUAUUCUUCUCAUAAGAUAUAGUCGGACCUCUCCUUAAUGGGAGCUAGCGGAUGAAGUGAUGCAACACUGGAGCCGCUGGGAACUAAUUUGUAUGCGAAAGUAUAUUGAUUAGUUUUGGAGUACUCGUGGUCG
Summary of the method: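 DiMSum derived fitness as the error-weighted combination of fold changes across replicates, kanamycin versus no kanamycin, normalised to wild type. E. coli BL21(DE3) held the library, which randomised all eight P1ex-region intron nucleotides within the knt kanamycin-resistance gene on pET-22b(+). Six replicate transformations grew overnight at 37°C or 30°C on LB agar with or without 25 μg/mL kanamycin, also containing 100 μg/mL carbenicillin, 50 μM IPTG and 0.2% rhamnose, and pooled colonies were amplicon-sequenced on an Illumina HiSeq 2500.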

## CUCCAGCAAUAUUACGGCAG
30 °C
  self-splicing fitness (ln): -4.58 ± 0.21
37 °C
  self-splicing fitness (ln): -1.75 ± 0.15

## UAGAAGCAAUAUUACGAACA
30 °C
  self-splicing fitness (ln): -0.322 ± 0.16
37 °C
  self-splicing fitness (ln): -0.859 ± 0.17

## UGGGAGCAAUAUUACGCAUC
30 °C
  self-splicing fitness (ln): -3 ± 0.32
37 °C
  self-splicing fitness (ln): -2.58 ± 0.38

## UAGGAGCAAUAUUACGGUAG
30 °C
  self-splicing fitness (ln): -3.52 ± 0.17
37 °C
  self-splicing fitness (ln): -1.56 ± 0.13

## AACGAGCAAUAUUACGAAAC
30 °C
  self-splicing fitness (ln): -4.97 ± 0.71

## CUGGAGCAAUAUUACGGAGU
37 °C
  self-splicing fitness (ln): -4.24 ± 0.72

## UUCGAGCAAUAUUACGCCUA
30 °C
  self-splicing fitness (ln): -1.67 ± 0.11
37 °C
  self-splicing fitness (ln): -1.39 ± 0.097

## CAUGAGCAAUAUUACGUACA
30 °C
  self-splicing fitness (ln): -3.1 ± 0.22
37 °C
  self-splicing fitness (ln): -2.17 ± 0.3

## GGAGAGCAAUAUUACGCCGG
37 °C
  self-splicing fitness (ln): -0.458 ± 1

## GAGCAGCAAUAUUACGGCUC
30 °C
  self-splicing fitness (ln): -2.94 ± 1.1
37 °C
  self-splicing fitness (ln): -0.693 ± 0.82

## CGCGAGCAAUAUUACGGCUC
37 °C
  self-splicing fitness (ln): -1.87 ± 0.79

## UCGUAGCAAUAUUACGAAGU
30 °C
  self-splicing fitness (ln): -3.58 ± 0.47
37 °C
  self-splicing fitness (ln): -3.06 ± 0.35

## UCCUAGCAAUAUUACGAUUA
30 °C
  self-splicing fitness (ln): -4.27 ± 0.59

## UGAGAGCAAUAUUACGGCCA
37 °C
  self-splicing fitness (ln): -0.635 ± 0.54

## GCCCAGCAAUAUUACGUUAC
30 °C
  self-splicing fitness (ln): -2.2 ± 0.083
37 °C
  self-splicing fitness (ln): -0.962 ± 0.087

## GAAAAGCAAUAUUACGAUGA
30 °C
  self-splicing fitness (ln): -0.7 ± 0.1
37 °C
  self-splicing fitness (ln): -0.295 ± 0.11

## UGCUAGCAAUAUUACGGACU
30 °C
  self-splicing fitness (ln): -0.341 ± 0.1
37 °C
  self-splicing fitness (ln): -0.639 ± 0.088

## CAGUAGCAAUAUUACGAAGC
30 °C
  self-splicing fitness (ln): -4.73 ± 1
37 °C
  self-splicing fitness (ln): -3.05 ± 0.32

## GUGCAGCAAUAUUACGACGU
30 °C
  self-splicing fitness (ln): -0.779 ± 0.11
37 °C
  self-splicing fitness (ln): 0.0794 ± 0.13

## CAGGAGCAAUAUUACGAGUU
37 °C
  self-splicing fitness (ln): -2.75 ± 0.62

## UAAGAGCAAUAUUACGUCCU
30 °C
  self-splicing fitness (ln): -3.45 ± 0.8

## UCUGAGCAAUAUUACGGAGC
30 °C
  self-splicing fitness (ln): -2.77 ± 0.21
37 °C
  self-splicing fitness (ln): -2.92 ± 0.2

## CUAGAGCAAUAUUACGCUCC
30 °C
  self-splicing fitness (ln): -2.45 ± 0.42
37 °C
  self-splicing fitness (ln): -1.74 ± 0.66

## AUACAGCAAUAUUACGUAGA
30 °C
  self-splicing fitness (ln): -2.11 ± 0.085
37 °C
  self-splicing fitness (ln): -0.327 ± 0.076

## CUCGAGCAAUAUUACGCUUG
30 °C
  self-splicing fitness (ln): -3.81 ± 0.52
37 °C
  self-splicing fitness (ln): -3.27 ± 0.6

## CAGCAGCAAUAUUACGUUAC
30 °C
  self-splicing fitness (ln): -3.83 ± 0.6

## CUCGAGCAAUAUUACGCCUC
37 °C
  self-splicing fitness (ln): -2.38 ± 0.65

## UAAGAGCAAUAUUACGCCAG
30 °C
  self-splicing fitness (ln): -4.29 ± 1.1
37 °C
  self-splicing fitness (ln): -2.28 ± 0.63

## AUGCAGCAAUAUUACGGCCC
30 °C
  self-splicing fitness (ln): -0.0496 ± 0.14
37 °C
  self-splicing fitness (ln): 0.777 ± 0.19

## CUGGAGCAAUAUUACGAUCA
30 °C
  self-splicing fitness (ln): -2.02 ± 1.2
37 °C
  self-splicing fitness (ln): -2.56 ± 0.77

## ACAGAGCAAUAUUACGCCUC
37 °C
  self-splicing fitness (ln): -0.505 ± 0.68

## UUCGAGCAAUAUUACGGGAC
30 °C
  self-splicing fitness (ln): -3.17 ± 1

## UUGUAGCAAUAUUACGGAGA
30 °C
  self-splicing fitness (ln): -3.34 ± 1

## AGACAGCAAUAUUACGAAUC
30 °C
  self-splicing fitness (ln): -4.38 ± 0.72

## UGAUAGCAAUAUUACGAGAA
30 °C
  self-splicing fitness (ln): -1.31 ± 0.67
37 °C
  self-splicing fitness (ln): -2.29 ± 0.65

## GGGGAGCAAUAUUACGAUAA
30 °C
  self-splicing fitness (ln): -2.8 ± 0.58
37 °C
  self-splicing fitness (ln): -2.41 ± 0.56

## AGAGAGCAAUAUUACGCUAU
30 °C
  self-splicing fitness (ln): -3.66 ± 0.6
37 °C
  self-splicing fitness (ln): -2.17 ± 0.63

## GUCUAGCAAUAUUACGGAGA
30 °C
  self-splicing fitness (ln): -3.18 ± 0.6
37 °C
  self-splicing fitness (ln): -2.81 ± 0.62

## GGGUAGCAAUAUUACGCCAG
30 °C
  self-splicing fitness (ln): -3.27 ± 1.1

## UAUGAGCAAUAUUACGCUCC
37 °C
  self-splicing fitness (ln): -3.24 ± 0.74

## CUUUAGCAAUAUUACGUCAC
30 °C
  self-splicing fitness (ln): -4.04 ± 1.1

## UCUCAGCAAUAUUACGCCCG
37 °C
  self-splicing fitness (ln): -1.52 ± 0.67

## UUUGAGCAAUAUUACGUGAC
30 °C
  self-splicing fitness (ln): -0.746 ± 0.59
37 °C
  self-splicing fitness (ln): -1.46 ± 0.53

## CAGGAGCAAUAUUACGACUG
30 °C
  self-splicing fitness (ln): -4.84 ± 0.51

## CUUGAGCAAUAUUACGAGAG
30 °C
  self-splicing fitness (ln): -4.16 ± 1

## CAUGAGCAAUAUUACGCAGU
30 °C
  self-splicing fitness (ln): -4.2 ± 0.39
37 °C
  self-splicing fitness (ln): -2.63 ± 0.23

## CCGAAGCAAUAUUACGGACC
30 °C
  self-splicing fitness (ln): -2.68 ± 0.78

## UCCUAGCAAUAUUACGAACC
30 °C
  self-splicing fitness (ln): -3.29 ± 0.5
37 °C
  self-splicing fitness (ln): -1.96 ± 0.67

## GUCUAGCAAUAUUACGCCAA
30 °C
  self-splicing fitness (ln): -3.31 ± 1

## CCGUAGCAAUAUUACGACCC
30 °C
  self-splicing fitness (ln): -3.35 ± 1

## UAUAAGCAAUAUUACGAGGG
30 °C
  self-splicing fitness (ln): -3.42 ± 0.3
37 °C
  self-splicing fitness (ln): -3.44 ± 0.6

## ACGGAGCAAUAUUACGUGGG
30 °C
  self-splicing fitness (ln): -3.99 ± 0.18
37 °C
  self-splicing fitness (ln): -2.29 ± 0.15

## CACUAGCAAUAUUACGGAAC
30 °C
  self-splicing fitness (ln): -4.76 ± 0.59

## ACUGAGCAAUAUUACGAGCC
37 °C
  self-splicing fitness (ln): -2.32 ± 0.64

## UCUAAGCAAUAUUACGAAUA
30 °C
  self-splicing fitness (ln): -3 ± 0.65
